# PubChem BioAssay AID743121 – NCATS – 2013
# Aim: 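Genes whose silencing strengthens cell killing by camptothecin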 (primary screen)
# Cells: MDA-MB-231 cells, a human breast cancer line
# Reagents: single siRNA against human genes, 20 nM siRNA (0.8 pmol per well)
# Timing: 120 h (drug added 48 h after transfection, read 72 h later)
# Treatment: camptothecin 20 nM (about EC30) for 72 h; vehicle 0.1% DMSO in parallel plates
# Read-out: 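CellTiter-Glo ATP signal, scaled to control siRNA as percent viability; sensitisation given as log2 of untreated divided by camptothecin-treated viability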
# Direction: log2 vehicle/camptothecin viability: higher = stronger sensitisation to camptothecin; viability with camptothecin and viability without drug: higher = more viable cells
# Hit rule: 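Active genes have an RSA gene-level p-value below 0.001, computed from the ratios of their separate siRNAs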
# Shown is one part, drawn at random, of about 26,000 deposited reagents. In the full data, 167 (0.63%) were called active. 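Calls are per gene from RSA p-values that are not deposited; an individual active-marked siRNA can sensitise only weakly.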 Entries without a mark were called inactive. Reagents against one gene are numbered here. No sequences are given here.
Gene,reagent no.,log2 vehicle/camptothecin viability,viability with camptothecin (% of control),viability without drug (% of control)
GNB5 (G protein subunit beta 5),1,-0.8,47.3,27.2
GNB5 (G protein subunit beta 5),2,-0.00385,89.9,89.7
GNB5 (G protein subunit beta 5),3,-0.133,77.7,70.9
AVPR1A (arginine vasopressin receptor 1A),1,-0.219,95.8,82.3
AVPR1A (arginine vasopressin receptor 1A),2,-0.163,99.1,88.5
AVPR1A (arginine vasopressin receptor 1A),3,-0.562,68.4,46.4
AVPR1A (arginine vasopressin receptor 1A),4,0.0398,68.3,70.2
PHRF1 (PHD and ring finger domains 1),1,-0.0463,66.2,64.2
PHRF1 (PHD and ring finger domains 1),2,-0.0594,45.4,43.5
PHRF1 (PHD and ring finger domains 1),3,0.0481,95.4,98.6
PHRF1 (PHD and ring finger domains 1),4,0.056,69.4,72.1
SLAMF9 (SLAM family member 9),1,0.493,36.7,51.6
SLAMF9 (SLAM family member 9),2,0.285,39.6,48.3
SLAMF9 (SLAM family member 9),3,-0.0349,104,102
SLAMF9 (SLAM family member 9),4,-0.088,101,94.8
ERBIN (erbb2 interacting protein),1,0.0318,102,105
ERBIN (erbb2 interacting protein),2,0.374,47.9,62
ERBIN (erbb2 interacting protein),3,-0.0931,91.1,85.4
IL17RD (interleukin 17 receptor D),1,-0.348,101,79.4
IL17RD (interleukin 17 receptor D),2,-0.0194,62.8,62
IL17RD (interleukin 17 receptor D),3,-0.301,109,88.2
IL17RD (interleukin 17 receptor D),4,-0.253,105,87.7
MSR1 (macrophage scavenger receptor 1),1,-0.485,95.6,68.3
MSR1 (macrophage scavenger receptor 1),2,-0.04,100,97.2
MSR1 (macrophage scavenger receptor 1),3,-0.357,63.3,49.4
MSR1 (macrophage scavenger receptor 1),4,0.303,55.2,68.1
MED12 (mediator complex subunit 12),1,-0.277,99.1,81.8
MED12 (mediator complex subunit 12),2,-0.155,44.9,40.4
MED12 (mediator complex subunit 12),3,-0.366,122,94.8
MED12 (mediator complex subunit 12),4,-0.0469,86.2,83.5
SLC2A1,1,-0.155,127,114
SLC2A1,2,-0.656,92.3,58.6
SLC2A1,3,0.151,57,63.3
CTLA4 (cytotoxic T-lymphocyte associated protein 4),1,0.00337,94.7,94.9
CTLA4 (cytotoxic T-lymphocyte associated protein 4),2,0.00183,104,104
CTLA4 (cytotoxic T-lymphocyte associated protein 4),3,-0.195,69,60.3
CTLA4 (cytotoxic T-lymphocyte associated protein 4),4,-0.318,66.6,53.5
ADGRE5 (adhesion G protein-coupled receptor E5),1,0.614,37.5,57.3
ADGRE5 (adhesion G protein-coupled receptor E5),2,-0.691,57.4,35.6
ADGRE5 (adhesion G protein-coupled receptor E5),3,-0.209,45.7,39.5
ADGRE5 (adhesion G protein-coupled receptor E5),4,0.0289,84.1,85.8
GPR83 (G protein-coupled receptor 83),1,-0.163,98.5,88
GPR83 (G protein-coupled receptor 83),2,0.5,48,67.9
GPR83 (G protein-coupled receptor 83),3,-0.133,61.4,56
GPR83 (G protein-coupled receptor 83),4,0.277,31.3,37.9
AGO1 (argonaute RISC component 1),1,-0.459,70.3,51.1
AGO1 (argonaute RISC component 1),2,-0.148,103,93.1
AGO1 (argonaute RISC component 1),3,0.559,29.8,43.9
AGO1 (argonaute RISC component 1),4,-0.0532,90.6,87.3

Ordered by “log2 vehicle/camptothecin viability” (low to high): some entries from above.
Gene,reagent no.,log2 vehicle/camptothecin viability,viability with camptothecin (% of control),viability without drug (% of control)
AVPR1A (arginine vasopressin receptor 1A),3,-0.562,68.4,46.4
AVPR1A (arginine vasopressin receptor 1A),1,-0.219,95.8,82.3
AVPR1A (arginine vasopressin receptor 1A),2,-0.163,99.1,88.5
